PubChem BioAssay AID540256 (National Center for Advancing Translational Sciences (NCATS), 2011)
About 3,700 (1.2%) of roughly 300,000 compounds were called active. Inconclusive results, whose numbers are uncertain, are shown with a selection of clear calls. The call rests on the fitted dose curve; tested in HEK293 cells. Potencies beside an inconclusive call are fits to weak or partial responses and may not hold up.

Assay: qHTS for Inhibitors of binding or entry into cells for Lassa Virus; further: nearly all actives have a fitted effect of over 50% in size
Conditions: Lassa virus pseudotype entry inhibition, cell reporter; activity change, negative = inhibition: at 37.9 µM (top of the series) unless noted
On the % scale 0 is the no-effect control and ±100 the full control effect; potency means the concentration at half of the fitted maximal effect.

Row | Compound | Potency | activity change, negative = inhibition
1 | CCOC(=O)CC(NC(=O)C(Cc1ccc(N(CCCl)CCCl)cc1)NC(C)=O)C(=O)OCC (stereo not given) | inconclusive: 5.62 µM [inhibitor, full curve, poor fit] | 
2 | Fc1ccc(-c2[nH]ncc2CN2CCN(c3ccc(F)cc3)CC2)cc1 | inconclusive: 0.562 µM [inhibitor, full curve, poor fit] | 
3 | Fc1cccc(COc2ccc(Nc3ncncc3C#Cc3ccccc3)cc2Cl)c1 | inconclusive: 0.0141 µM [inhibitor, full curve, poor fit] | 
4 | O=C(Nc1cccc(F)c1)N(Cc1ccc(Cl)cc1)CC(O)C(F)(F)F (stereo not given) | inconclusive: 28.2 µM [inhibitor, single point] | 
5 | Cc1c(/C=N\NC(=O)C2COc3ccccc3O2)c2ccccc2n1C (stereo not given) | inconclusive: 1.12 µM [inhibitor, full curve] | 
6 | CC(C)CC(NC(N)=O)C(=O)Nc1cccc([N+](=O)[O-])c1 (stereo not given) | inconclusive: 35.5 µM [inhibitor, single point] | 
7 | Cc1ccc(C)c(N2CCN(C(=O)C34CC5CC(C3)CC(n3nnc(C)n3)(C5)C4)CC2)c1 | inconclusive: 22.4 µM [inhibitor, single point] | 
8 | CCCCN(C)CCCNC(=O)Cn1ncc2c3ccccc3n(Cc3ccccc3)c2c1=O | inconclusive: 1.26 µM [inhibitor, partial curve, poor fit] | 
9 | Cc1cc(-c2nnc(CCC(=O)N3CCN(Cc4cccc(F)c4)CC3)o2)c(C)o1 | inconclusive: 17.8 µM [inhibitor, single point] | 
10 | CCOC(=O)c1cc2c(nc1N)CC(C)(C)OC2 | inconclusive: 35.5 µM [activator, single point] | 
11 | O=C(/C=C/c1ccccc1)NC(=S)NNC(=O)c1cccnc1 |  | inactive: 21.3%
12 | Cc1nc(N2CCN(C(=O)c3ccco3)CC2)c2c3c(sc2n1)CC(C)CC3 (stereo not given) | inconclusive: 29.1 µM [inhibitor, single point] | 
13 | CCOc1ccc(N(CC)S(=O)(=O)c2cc(Br)cc3c2N(C(C)=O)C(C)C3)cc1 (stereo not given) | inconclusive: 0.631 µM [inhibitor, full curve, poor fit] | 
14 | COc1ccccc1OCCNC(=O)c1ccc(NC(=O)CC2SC(N3CCCC3)=NC2=O)cc1 (stereo not given) |  | inactive: -8.59%
15 | CC(=O)c1ccc(NC(=O)Cn2nc(C)c([N+](=O)[O-])c2C)cc1 | inconclusive: 2.82 µM [inhibitor, single point] | 
16 | Cc1ccc2c(c1)C(O)(CC(=O)c1ccc(C)s1)C(=O)N2 (stereo not given) |  | inactive: 14.1%
17 | COc1ccc(/C(N)=N/OC(=O)c2ccc3c(c2)OCO3)cc1OC | inconclusive: 18.3 µM [inhibitor, single point] | 
18 | COc1ccc(-n2nc(C(=O)NCC(=O)NCCC3=CCCCC3)c3ccccc3c2=O)c(OC)c1 |  | inactive: -21.1%
19 | O=C1c2ccccc2NC(c2cnc3ccccc3n2)N1O (stereo not given) | inconclusive: 8.91 µM [inhibitor, partial curve, poor fit] | 
20 | CC(c1nc2ccccc2n1Cc1ccccc1)N1CCCCC1 (stereo not given) |  | inactive: -54.4% [at 46.1 µM]
21 | N=C1N(c2ccccc2)C(=S)C(=Nc2ccccc2)N1c1ccccc1 |  | inactive: -7.67% [at 46.1 µM]
22 | Cc1ccc(/C(N)=N/OC(=O)CCC2CCCC2)cc1 |  | inactive: 6.79%
23 | CCN(CC)C(=O)CSc1nsc(SCC(=O)N(CC)CC)c1C#N |  | inactive: -20%
24 | CC12CC3CC(C)(C1)CC(C(=O)NC(=S)N1CCCCC1)(C3)C2 | inconclusive: 20.6 µM [inhibitor, partial curve, poor fit] | 

Row | Compound | Potency | activity change, negative = inhibition
25 | Cc1cc(C)cc(OCC(=O)Nc2c(C)ccc3nsnc23)c1 |  | inactive: 8.46% [at 46.1 µM]
26 | N#CC1=C(N)Oc2n[nH]c(-c3cccnc3)c2C1c1ccc([N+](=O)[O-])o1 (stereo not given) | inconclusive: 0.891 µM [inhibitor, full curve, poor fit] | 
27 | C[C@]12CCC(=O)CC1CCC1C2CC[C@]2(C)C(OC(=O)CCC(=O)O)CCC12 (stereo not given in full) | inconclusive: 3.98 µM [inhibitor, single point] | 
28 | COc1ccccc1C1CC(c2cccs2)=NN1C(=O)CCC(=O)O (stereo not given) |  | inactive: -4.66% [at 46.1 µM]
29 | COc1cccc(C(=O)CSc2nnc(-c3cccs3)o2)c1 |  | inactive: 9.05%
30 | O=C(Nc1ccc(N2CCOCC2)c([N+](=O)[O-])c1)c1ccco1 | inconclusive: 3.55 µM [activator, partial curve, poor fit] | 
31 | CCOC(=O)c1c(C)[nH]c(C(=O)N2CCCC(C(=O)c3ccccc3OC)C2)c1C (stereo not given) |  | inactive: -2.88%
32 | COc1ccc(NC(=O)c2oc3ccc(S(=O)(=O)N4CCCCC4)cc3c2C)cc1 | inconclusive: 6.31 µM [inhibitor, single point] | 
33 | COC(=O)c1cccc(N(CC(=O)NCC2CCCO2)C(=O)CCC(=O)Nc2cc(C)on2)c1 (stereo not given) | inconclusive: 25.1 µM [inhibitor, single point] | 
34 | Cc1cccc(CNC(=O)CCn2c(=O)c3cccn3c3ccc(F)cc32)c1 |  | inactive: 5.27% [at 46.1 µM]
35 | COc1ccc(-n2nnc3c(=O)n(Cc4cc(C)ccc4C)cnc32)cc1 | active: 1.16 µM | 
36 | Cc1ccc(NCc2nc3ccccc3n2C)cc1 | inconclusive: 14.1 µM [inhibitor, single point] | 
37 | O=C(Nc1ccc(N2CCOCC2)cc1)c1cccc2ccccc12 | inconclusive: 2.24 µM [inhibitor, full curve, poor fit] | 
38 | COc1ccc(CNc2ncnc3cc(OC)c(OC)cc23)cc1OC | inconclusive: 0.794 µM [inhibitor, single point] | 
39 | CCc1ccccc1N1CC(C(=O)Nc2cc(S(=O)(=O)N3CCCC3)ccc2Cl)CC1=O (stereo not given) | inconclusive: 7.08 µM [inhibitor, partial curve, poor fit] | 
40 | Cc1ccc(CNC(=O)C2CC(=O)OC23CCCC3)c(C)c1 (stereo not given) | inconclusive: 23.1 µM [inhibitor, single point] | 
41 | CC(NC(=O)Cc1cccs1)C(c1cccs1)N1CCN(c2ccccc2F)CC1 (stereo not given) | inconclusive: 25.9 µM [inhibitor, partial curve, poor fit] | 
42 | Cc1cccc(CN2CCC(CNC(=O)Nc3ccc(F)c(Cl)c3)CC2)c1 | inconclusive: 0.1 µM [inhibitor, full curve, poor fit] | 
43 | CC(C)c1cc(C(=O)N2CCCC(N3CCN(c4ccc(F)cc4)CC3)C2)no1 (stereo not given) | inconclusive: 11.2 µM [inhibitor, partial curve, poor fit] | 
44 | Cc1ccccc1NC(=O)c1ccc2c(c1)c(C)c(C)n2Cc1ccccc1 |  | inconclusive: 2.36% [activator] [at 46.1 µM]
45 | Cc1ccc2c(c1)C1(OCCO1)C(=O)N2 |  | inactive: 11.4%
46 | COC(=O)COc1ccc(S(=O)(=O)NCc2ccco2)cc1 | inconclusive: 0.58 µM [inhibitor, partial curve, poor fit] | 
47 | O=C(O)c1ccc(CNC(=S)Nc2ccccc2)cc1 | inconclusive: 2.51 µM [inhibitor, partial curve, poor fit] | 
48 | Cc1ccc(C(=O)Nc2cc3c(cc2C)n(C)c(=O)c(=O)n3C)cc1 |  | inactive: 7.64% [at 46.1 µM]

Row | Compound | Potency | activity change, negative = inhibition
49 | Cc1cc(O)c2c(c1)C(=O)c1cc(O)cc(O)c1C2=O | inconclusive: 20.6 µM [activator, single point] | 
50 | CCOC(=O)c1c(-c2ccccc2)oc2ccc(NS(=O)(=O)c3cc(C)c(C)cc3C)cc12 |  | inactive: -0.58% [at 46.1 µM]
51 | CCOc1ccccc1CN1CCN(S(=O)(=O)c2ccccc2)CC1 | inconclusive: 35.5 µM [inhibitor, single point] | 
52 | C=C(C(=O)c1ccccc1)C(c1ccccc1)C(C)C(=O)c1ccccc1 (stereo not given) | inconclusive: 22.4 µM [inhibitor, single point] | 
53 | O=C(N/N=C/c1cn(-c2cccs2)nc1-c1ccccc1)c1ccccc1O | active: 12.6 µM | 
54 | Nc1c(C(=O)NCc2ccccc2)c2nc3ccccc3nc2n1-c1ccc2c(c1)OCO2 | inconclusive: 29.1 µM [inhibitor, single point] | 
55 | COc1ccc(S(=O)(=O)N2CCCCCC2)cc1NC(=O)Cc1ccccc1 |  | inactive: 3.08%
56 | Cc1ccc(OCC(=O)Nc2ccc(F)cc2)cc1 |  | inactive: 12.4%
57 | Cc1noc(C)c1CSc1ccc(Br)cc1 | inconclusive: 0.366 µM [inhibitor, partial curve, poor fit] | 
58 | CCn1c(CCc2ccccc2)n[nH]c1=S | inconclusive: 11.2 µM [inhibitor, single point] | 
59 | Cc1ccccc1S(=O)(=O)Nc1ncnc2ccccc12 |  | inactive: 3.17%
60 | COc1ccc(S(=O)(=O)N2CCC(C(=O)NC3CC3)CC2)cc1 |  | inactive: 2.3% [at 46.1 µM]
61 | CCCNC(=O)C1CC(=O)N(c2ccc(OCc3ccc(Cl)cc3)cc2)C1 (stereo not given) | inconclusive: 20 µM [inhibitor, single point] | 
62 | O=C(Cn1nnc(-c2ccc3c(c2)OCO3)n1)N1CCOCC1 |  | inactive: 25.9%
63 | COc1ccc(C2NCCn3cccc32)cc1 (stereo not given) |  | inactive: 3.79%
64 | O=C(Nc1ccc(-c2nc3cc(Cl)ccc3c(=O)o2)cc1)c1ccco1 |  | inactive: -3.47%
65 | CCOc1ccc(-n2cc(-c3ccccc3)c3c(N4CCOCC4)ncnc32)cc1 | inconclusive: 11.2 µM [inhibitor, partial curve, poor fit] | 
66 | N#Cc1cccc(C(=O)N(CCc2ccccc2)Cc2cccs2)c1 | inconclusive: 22.4 µM [inhibitor, single point] | 
67 | Cc1cc(NC(=O)CSc2nc(-c3ccco3)cc(C(F)(F)F)n2)n(-c2ccccc2)n1 | inconclusive: 3.55 µM [inhibitor, full curve] | 
68 | COc1cc(NC(=S)N2CCCC(CO)C2)cc(OC)c1 (stereo not given) |  | inactive: 3.86%
69 | O=C1C2CCCC1C(N1CCCCC1)CC2 (stereo not given) | inconclusive: 12.6 µM [activator, partial curve, poor fit] | 
70 | CCc1c(C)c2ccc(O)c(CN3CCCC3)c2oc1=O | inconclusive: 22.4 µM [activator, partial curve, poor fit] | 

Rewritten as tab-separated lines: entries from further up
Row	Compound	Potency	activity change, negative = inhibition
54	Nc1c(C(=O)NCc2ccccc2)c2nc3ccccc3nc2n1-c1ccc2c(c1)OCO2	inconclusive: 29.1 µM [inhibitor, single point]	
55	COc1ccc(S(=O)(=O)N2CCCCCC2)cc1NC(=O)Cc1ccccc1		inactive: 3.08%
56	Cc1ccc(OCC(=O)Nc2ccc(F)cc2)cc1		inactive: 12.4%
57	Cc1noc(C)c1CSc1ccc(Br)cc1	inconclusive: 0.366 µM [inhibitor, partial curve, poor fit]	
58	CCn1c(CCc2ccccc2)n[nH]c1=S	inconclusive: 11.2 µM [inhibitor, single point]	
59	Cc1ccccc1S(=O)(=O)Nc1ncnc2ccccc12		inactive: 3.17%
60	COc1ccc(S(=O)(=O)N2CCC(C(=O)NC3CC3)CC2)cc1		inactive: 2.3% [at 46.1 µM]
61	CCCNC(=O)C1CC(=O)N(c2ccc(OCc3ccc(Cl)cc3)cc2)C1 (stereo not given)	inconclusive: 20 µM [inhibitor, single point]	
62	O=C(Cn1nnc(-c2ccc3c(c2)OCO3)n1)N1CCOCC1		inactive: 25.9%
63	COc1ccc(C2NCCn3cccc32)cc1 (stereo not given)		inactive: 3.79%
64	O=C(Nc1ccc(-c2nc3cc(Cl)ccc3c(=O)o2)cc1)c1ccco1		inactive: -3.47%
65	CCOc1ccc(-n2cc(-c3ccccc3)c3c(N4CCOCC4)ncnc32)cc1	inconclusive: 11.2 µM [inhibitor, partial curve, poor fit]	
66	N#Cc1cccc(C(=O)N(CCc2ccccc2)Cc2cccs2)c1	inconclusive: 22.4 µM [inhibitor, single point]	
67	Cc1cc(NC(=O)CSc2nc(-c3ccco3)cc(C(F)(F)F)n2)n(-c2ccccc2)n1	inconclusive: 3.55 µM [inhibitor, full curve]	
68	COc1cc(NC(=S)N2CCCC(CO)C2)cc(OC)c1 (stereo not given)		inactive: 3.86%
69	O=C1C2CCCC1C(N1CCCCC1)CC2 (stereo not given)	inconclusive: 12.6 µM [activator, partial curve, poor fit]	
70	CCc1c(C)c2ccc(O)c(CN3CCCC3)c2oc1=O	inconclusive: 22.4 µM [activator, partial curve, poor fit]	

From entry 62 as far as 63, copied from above:
Row | Compound | Potency | activity change, negative = inhibition
62 | O=C(Cn1nnc(-c2ccc3c(c2)OCO3)n1)N1CCOCC1 |  | inactive: 25.9%
63 | COc1ccc(C2NCCn3cccc32)cc1 (stereo not given) |  | inactive: 3.79%
